Reference: publication doi:10.1101/2021.01.14.426755 (bioRxiv, 2021)
No constants are given. Whether binding was seen depends on the method and setting. Some results given as binding are weak or reduced against the parent protein; the word gives no strength. Where a sequence is shown, tags or fusion partners need not be part of it.

Target: T1, Ssl2 (Saccharomyces cerevisiae (endogenous, purified from yeast)) (UniProt Q00578)
T1 sequence: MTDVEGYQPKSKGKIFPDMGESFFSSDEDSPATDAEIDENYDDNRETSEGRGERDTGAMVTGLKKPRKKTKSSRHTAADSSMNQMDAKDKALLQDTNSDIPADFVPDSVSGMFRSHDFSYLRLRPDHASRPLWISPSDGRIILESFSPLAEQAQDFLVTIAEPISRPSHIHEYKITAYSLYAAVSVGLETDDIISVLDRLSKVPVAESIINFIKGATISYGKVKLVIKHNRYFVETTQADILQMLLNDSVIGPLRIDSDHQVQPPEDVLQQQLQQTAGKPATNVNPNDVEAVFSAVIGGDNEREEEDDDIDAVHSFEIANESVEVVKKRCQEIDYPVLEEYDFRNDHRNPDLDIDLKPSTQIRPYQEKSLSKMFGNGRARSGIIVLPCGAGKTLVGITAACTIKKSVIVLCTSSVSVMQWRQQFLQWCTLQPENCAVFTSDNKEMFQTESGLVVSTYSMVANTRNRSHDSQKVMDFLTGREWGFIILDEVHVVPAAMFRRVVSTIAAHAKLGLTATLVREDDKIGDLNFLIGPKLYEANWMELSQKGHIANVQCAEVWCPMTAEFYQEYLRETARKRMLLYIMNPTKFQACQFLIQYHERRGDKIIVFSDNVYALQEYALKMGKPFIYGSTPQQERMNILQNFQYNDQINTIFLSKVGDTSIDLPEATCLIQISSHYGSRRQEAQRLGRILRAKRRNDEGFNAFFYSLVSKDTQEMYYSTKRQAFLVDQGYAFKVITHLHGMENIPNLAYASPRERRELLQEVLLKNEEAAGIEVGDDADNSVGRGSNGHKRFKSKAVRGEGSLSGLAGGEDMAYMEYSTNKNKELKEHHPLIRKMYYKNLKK
Test: cryo-EM structure

B1: Tfb5 (natural protein)
chain: MARARKGALVQCDPSIKALILQIDAKMSDIVLEELDDTHLLVNPSKVEFVKHELNRLLSKNIYNPMDEEENQ
In the case of B1, the binding is reported as “binds weakly”.
